From patent publication US20200017752A1, “Use Of A Composition Containing At Least One Biodegradable Sugar-Amide-Compound In Combination With At Least One Sulfur-Based Synergist For Corrosion Inhibition Of A Metallic Equipment In Oilfield Applications” (Clariant International Ltd., priority 2016, published 2020)

Tests used:
[1] = Corrosion test, rotating cylinder electrode (RCE), LPR; settings: 150° F., 2000 RPM, synthetic brine, 100% CO2, 12 ppm total inhibitor
Source text: In order to evaluate the corrosion inhibition efficacy of the formulations, two different test methods were employed: rotating cylinder electrode (RCE) tests and high pressure, high temperature (HPHT) autoclave weight loss tests. For all testing, the following standard brine composition was used (as outlined in table 3):
A gas composition of 100% CO2 was used throughout testing.
The metallurgy of the coupons tested was C1018 carbon steel for RCE testing and HPHT autoclave testing. Coupons were polished mechanically using 320 grit silicon-carbide (SiC) paper, 400 grit SiC paper, then 600 grit SIC paper and rinsed with water then acetone prior to testing.
The rotating cylinder electrode (RCE) tests were conducted in Pyrex™ glass reaction kettles that were heated to 150° F. The testing solution was comprised of 900 mL of brine. The electrode rotation rate was set at 2000 RPM, which generated a wall shear stress of 7.0 Pa. Linear polarization resistance (LPR) measurements were made with a Gamry electrochemical measurement system. The working electrode was made of a 1018 carbon steel (CS) cylinder with a surface area of 3.16 cm^2. A Hastelloy C276 electrode was used as a pseudo-reference, and a titanium rod was used as the counter electrode. […] The baseline corrosion rate corresponds to the blank corrosion value. Upon completion of the tests, the electrodes were cleaned in an inhibited acid bath according to ASTM G1 C.3.5, and weighed to 0.1 mg.

[2] = HPHT rotating cage autoclave (RCA) weight loss corrosion test; settings: 700 rpm, 150 ppm total inhibitor, brine, CO2; for Average Corrosion Rate At 66° C.: 34.5 bar, 3 days; for Average Corrosion Rate At 149° C.: 27.6 bar, 5 days

Compound | Corrosion Rate 2 hr after Cl dose [1] | Corrosion Rate Final 3 hr [1] | Average Corrosion Rate At 66° C. [2] | Average Corrosion Rate At 149° C. [2]
N.O=C(O)CS [ATG, Ammonium Thioglycolate] | 47.6 mpy | 14.5 mpy | 6.32 mpy | 40.61 mpy
N.N.O=S(O)(O)=S [ATS, Ammoniumthiosulfate] | 38.7 mpy | 13.9 mpy | 4.89 mpy | 34.87 mpy
CCCCCCCCCC(=O)N(C)CC(O)C(O)C(O)C(O)CO (stereo not shown) [Glucamide #1] | 44.2 mpy | 11.6 mpy | 6.25 mpy | 41.90 mpy
CC(C)CCC(C)CCC(C)CC(=O)N(C)CC(O)C(O)C(O)C(O)CO (stereo not shown) [Glucamide #2] | 34.6 mpy | 10.2 mpy | 4.23 mpy | 35.66 mpy
CCCCCCCCCC(=O)N(C)CC1OC(CO)C(O)C1O (stereo not shown) [Glucamide #3] | 44.8 mpy | 10.9 mpy | 4.81 mpy | 36.10 mpy
CC(C)CCC(C)CCC(C)CC(=O)N(C)CC1OC(CO)C(O)C1O (stereo not shown) [Glucamide #4] | 41.6 mpy | 9.8 mpy | 3.62 mpy | 29.73 mpy
CCCCCCCC/C=C\CCCCCCCC(=O)N(C)CC(O)C(O)C(O)C(O)CO (stereo not shown) [Glucamide #5] | 38.6 mpy | 9.6 mpy | 3.87 mpy | 32.76 mpy
CCCCCCCC/C=C\CCCCCCCC(=O)N(C)CC1OC(CO)C(O)C1O (stereo not shown) [Glucamide #6] | 42.4 mpy | 10.6 mpy | 3.92 mpy | 35.79 mpy
OCCS [MET, Mercaptoethanol] | 45.6 mpy | 15.4 mpy | 5.21 mpy | 38.12 mpy
CCCCCCCC/C=C\CCCCCCCCN[C@@H](CCSC)C(=O)O [OMet, N-Oleyl-Methionine] | 39.6 mpy | 12.9 mpy | 7.89 mpy | 44.45 mpy
